Source: PubChem BioAssay AID504786 (Drosophila RNAi Screening Center, 2011)

Aim: 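Fly genes required for HIF-dependent transcription when hypoxia is mimicked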 (primary screen)
Cell system: Drosophila S2 cells with a stable HIF luciferase reporter
Knock-down reagent: long dsRNA against Drosophila genes, about 0.2 µg dsRNA per well of a 384-well plate
Time to read-out: three days of knock-down, then 20 h of DFO before reading
Challenge: desferrioxamine (DFO) at 100 µM, an iron chelator that mimics hypoxia, for 20 h
Measurement: 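Firefly luciferase driven by the mouse ldh-a hypoxia-response element, measured after 20 h of 100 µM DFO; z-scores per plate, higher means more signal lost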
Scale: z-score: higher = stronger loss of HIF reporter signal
The deposit covers about 21,000 reagents; shown is an unselected part of those with a known target gene and a result. 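Primary screen; positive scores mean lost reporter signal, so the sign may be inverted from the usual convention.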 Reagents against one gene are numbered here. Names joined by + are all predicted targets of the reagent.

gene,reagent no.,"z-score, replicate 1","z-score, replicate 2","z-score, replicate 3","z-score, replicate 4"
CG30151,1,0.3,0,,
CG18789,1,-0.2,-0.3,,
CG8852,1,-0.1,-0.5,,
Tmep (Transmembrane endosomal protein),1,-0.2,0,,
CG12963,1,0,-0.2,,
Apt1 (Acyl-protein thioesterase 1),1,-0.3,0,,
hob (hobbit),1,-0.2,0.1,,
yem (yemanuclein),1,-0.5,-0.6,,
yem (yemanuclein),2,-0.7,-0.1,,
CG4546,1,0,2.4,,
CG7420,1,-0.4,-0.5,,
p-cup (presidents-cup),1,-0.3,-0.6,,
wor (worniu),1,-0.3,-0.4,,
tef (teflon),1,-0.2,-0.1,,
dcma (decima),1,0,-0.4,,
dcma (decima),2,-0.3,-0.7,,
gdrd (goddard),1,0,0,,
Rcd6 (Reduction in Cnn dots 6),1,-0.2,-0.3,,
klhl10 (kelch like family member 10),1,0,-0.2,,
klhl10 (kelch like family member 10),2,-0.2,0.3,,
klhl10 (kelch like family member 10),3,-0.3,-0.3,,
klhl10 (kelch like family member 10),4,0.1,0,,
CG31871,1,0,0.1,,
CG31871,2,0.1,0.5,,
Spn53F (Serpin 53F),1,-0.3,-0.6,,
CG33514,1,0.2,-0.4,1.2,-0.2
CG33514,2,-0.4,-0.7,,
"IP3K1 (Inositol 1,4,5-triphosphate kinase 1)",1,-0.1,-0.5,,
tbc (trabuco),1,-0.2,0.1,,
Qsox1 (Quiescin sulfhydryl oxidase 1),1,-0.6,0,,
okr (okra),1,-0.4,-0.4,,
CG10943,1,-0.2,-0.4,,
CG2519,1,-0.4,-0.3,,
"SdhD (Succinate dehydrogenase, subunit D)",1,-0.1,-0.6,,
CG10793,1,-0.2,-0.4,,
CG18477 + CG31780,1,-0.2,-0.5,,
CG34187 (retired record),1,-0.1,-0.1,,
Ercc1,1,0.1,1.8,,
chinmo (Chronologically inappropriate morphogenesis),1,-0.3,-0.3,,
chinmo (Chronologically inappropriate morphogenesis),2,1.3,0.8,,
chinmo (Chronologically inappropriate morphogenesis),3,5.1,3.6,,
CG33642,1,0.1,0,,
Opa1 (Optic atrophy 1),1,-0.1,-0.2,,
CG2126,1,-0.3,0,,
CG15014,1,-0.2,-0.2,,
ND-B22 (NADH dehydrogenase (ubiquinone) B22 subunit),1,-0.3,0.3,,
CG12123,1,-0.4,-0.1,,
IFT46 (Intraflagellar transport 46),1,-0.2,-0.2,,
CG32830 (retired record),1,-0.9,-0.4,,
CG31533,1,-0.4,-0.5,,
AstA-R1 (Allatostatin A receptor 1),1,0.4,-0.1,,
AstA-R1 (Allatostatin A receptor 1),2,0.3,0.2,,
CG4957,1,-0.1,0.1,,
ReepB (Receptor expression enhancing protein B),1,-0.4,-0.7,,
SA1 (Stromalin 1),1,0,0.1,,
Apc (APC-like),1,0.1,0.2,,
CG14352,1,-0.4,-0.4,,
sa (spermatocyte arrest),1,-0.3,-0.3,0,-0.2
Nepl3 (Neprilysin-like 3),1,-0.2,-0.4,,
TfIIA-S (Transcription-factor-IIA-S),1,0.1,-0.3,,
CG9706,1,-0.2,0,,
apolpp (apolipophorin),1,-0.3,-0.4,,
CG2701,1,-0.2,-0.7,,
CG5376,1,1.5,0.1,,
CG17177,1,-0.1,-0.1,,
CG7724,1,-0.3,-0.1,,
CG11672,1,-0.1,0,,
Secp43 (tRNA Selenocysteine associated protein),1,-0.3,-0.2,,
CG6769,1,-0.3,-0.5,,
dj-1beta,1,-0.4,-0.3,,
CG13807,1,-0.3,-0.5,,
CG31467,1,-0.3,-0.6,,
GlyT (Glycine transporter),1,-0.3,-0.5,,
CG45067,1,-0.2,-0.1,,
Zip42C.2 (Zinc/iron regulated transporter-related protein 42C.2),1,-0.2,-0.3,,
Usp30 (Ubiquitin specific protease 30),1,-0.2,-0.5,,
Polr1E (RNA polymerase I subunit E),1,0.1,0,,
Polr1E (RNA polymerase I subunit E),2,-0.2,-0.2,,
Cyp4ae1 (Cytochrome P450 4ae1),1,-0.2,-0.8,,
loh (lonely heart),1,0.2,-0.2,,
loh (lonely heart),2,-0.2,0.1,,
CG3222,1,-0.2,-0.6,,
Vps16A (Vacuolar protein sorting 16A),1,0.1,0.7,,

Reformatted: entries from further up
gene	reagent no.	z-score, replicate 1	z-score, replicate 2	z-score, replicate 3	z-score, replicate 4
CG31871	1	0	0.1		
CG31871	2	0.1	0.5		
Spn53F (Serpin 53F)	1	-0.3	-0.6		
CG33514	1	0.2	-0.4	1.2	-0.2
CG33514	2	-0.4	-0.7		
IP3K1 (Inositol 1,4,5-triphosphate kinase 1)	1	-0.1	-0.5		
tbc (trabuco)	1	-0.2	0.1		
